Results published in publication PMC8047447.
No constants are given. Whether binding was seen depends on the method and setting. Some entries that bind do so weakly or less than the wild type.

Sequences of proteins named here, by UniProt entry; tags and fusion partners are left off. A change or cut given only in a name is not applied to a line headed by its entry. A line that says so, or that is headed by a name, gives the form on record, which may keep a tag or linker.
UniProt Q9NZ32: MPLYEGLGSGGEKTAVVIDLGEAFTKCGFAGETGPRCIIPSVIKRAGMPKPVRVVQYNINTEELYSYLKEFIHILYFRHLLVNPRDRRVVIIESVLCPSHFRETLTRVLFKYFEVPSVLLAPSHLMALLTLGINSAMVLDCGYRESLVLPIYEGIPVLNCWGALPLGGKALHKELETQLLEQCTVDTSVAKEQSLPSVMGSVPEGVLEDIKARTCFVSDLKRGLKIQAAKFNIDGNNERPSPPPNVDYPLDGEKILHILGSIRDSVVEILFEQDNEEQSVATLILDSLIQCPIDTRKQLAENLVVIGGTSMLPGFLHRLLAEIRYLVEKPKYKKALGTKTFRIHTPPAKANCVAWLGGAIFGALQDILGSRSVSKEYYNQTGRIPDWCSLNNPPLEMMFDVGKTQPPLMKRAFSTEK
p62 (human, isoform A), site 2 mutant (Q9UJW0-1, form named): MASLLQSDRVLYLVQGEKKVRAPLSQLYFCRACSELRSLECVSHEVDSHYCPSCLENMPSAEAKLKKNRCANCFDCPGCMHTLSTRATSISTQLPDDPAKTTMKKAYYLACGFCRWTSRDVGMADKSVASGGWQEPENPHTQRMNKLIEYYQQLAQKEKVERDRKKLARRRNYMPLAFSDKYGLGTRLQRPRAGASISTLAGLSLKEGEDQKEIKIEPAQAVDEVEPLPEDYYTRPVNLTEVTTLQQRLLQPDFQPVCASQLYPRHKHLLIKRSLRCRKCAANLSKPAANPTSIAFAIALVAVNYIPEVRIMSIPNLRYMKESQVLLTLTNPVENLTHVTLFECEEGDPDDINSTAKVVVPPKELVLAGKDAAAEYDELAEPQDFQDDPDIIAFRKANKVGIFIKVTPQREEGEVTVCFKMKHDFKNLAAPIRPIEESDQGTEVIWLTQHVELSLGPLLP

Target: T1, 2xStrep-Psc-HOOK3 1–522 (UniProt Q86VS8)
T1 sequence: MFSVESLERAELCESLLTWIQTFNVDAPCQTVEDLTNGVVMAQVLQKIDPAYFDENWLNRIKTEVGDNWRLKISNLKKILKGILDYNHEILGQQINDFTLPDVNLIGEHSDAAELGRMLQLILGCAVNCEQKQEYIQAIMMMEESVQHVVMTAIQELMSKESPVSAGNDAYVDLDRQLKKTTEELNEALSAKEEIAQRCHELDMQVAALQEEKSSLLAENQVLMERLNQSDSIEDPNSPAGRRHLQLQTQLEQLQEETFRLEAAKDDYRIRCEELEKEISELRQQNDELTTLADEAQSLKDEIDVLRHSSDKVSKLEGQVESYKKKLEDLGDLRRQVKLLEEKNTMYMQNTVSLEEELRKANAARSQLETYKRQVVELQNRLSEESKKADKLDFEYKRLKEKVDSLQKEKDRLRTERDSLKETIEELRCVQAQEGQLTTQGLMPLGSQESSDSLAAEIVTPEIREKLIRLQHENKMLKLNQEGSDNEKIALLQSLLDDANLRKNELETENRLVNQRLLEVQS
Assay: pull-down; 100 pmol Strep-tagged adaptor with 700 pmol pointed end complex, 25 mM HEPES pH 7.2, 100 mM KCl, 1 h at 4°C; Streptactin beads, washed at 150 mM KCl, eluted with desthiobiotin; Arp11 band quantified (SYPRO Ruby); both purified

| Substance | binding |
| --- | --- |
| pointed end complex, site 3 mutant (from UniProt Q9NZ32 1-417; Q9UJW0-1 1-460; Q9BTE1 1-182; O00399 1-190) | binds |

Target: ZZ-TEV-Arp11 (human) (human) (UniProt Q9NZ32)
Assay: co-purification (IgG affinity by ZZ-Arp11, then gel filtration); subunits co-expressed in Sf9 cells; clarified lysate on IgG beads, TEV protease, Superose 6 increase; single peak

| Substance | binding |
| --- | --- |
| p25 (human), site 3 mutant (from UniProt Q9BTE1 1-182) | binds |
| p25 (human) (from UniProt Q9BTE1 1-182) | binds |
| p25 (human), site 4 mutant (from UniProt Q9BTE1 1-182) | binds |
| p62 (human, isoform A), site 2 mutant (from UniProt Q9UJW0-1 1-460) | binds |
| p27 (human) (from UniProt O00399 1-190) | binds |
| p62 (human, isoform A) (from UniProt Q9UJW0-1 1-460) | binds |
